# Source: PubChem BioAssay AID624297 (National Center for Advancing Translational Sciences (NCATS), 2012)
# In all, about 340,000 compounds went through this assay and about 6,200 (1.8%) were called active. Inconclusive results, whose numbers are uncertain, are shown with a selection of clear calls. Calls follow the shape of the dose curve; as a rule, active = well fitted activation curve with a large enough effect; inconclusive = small, poorly fitted or top-dose-only effect; inactive = no such curve, though single readings can be large or run the other way. Where the call is inconclusive, the potency comes from a doubtful curve fit.
# Test: A quantitative high throughput screen for small molecules that induce DNA re-replication in SW480 colon adenocarcinoma cells. Also: nearly all actives have a fitted effect of over 55% in size. As to re-replication activation: % of control where 0% means no effect.
# Conditions: Hoechst DNA content imaging, 48 h; re-replication activation: at 46.1 µM (top of the series) unless noted
# Procedure, shortened: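 Cells (250 per well) received 23 nL compound or DMSO by pin tool and were kept 48 hr at 37 C, 5% CO2. Nuclei were then stained with Hoechst for 40 min and scanned for DNA content.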
# Potency is read from the fitted curve at half-maximal effect.
SMILES,Potency,re-replication activation
O=C1NC(=S)S/C1=C\C=C\c1ccc([N+](=O)[O-])o1,"inconclusive: 0.651 µM [activator, partial curve, poor fit]",–
COc1ccc(-c2ccn(-c3cccc(F)n3)n2)cc1,"inconclusive: 29.1 µM [activator, single point]",–
Cc1cc(C(=O)N/N=C/c2ccc(O)c(O)c2O)c(C)n1-c1ccccc1,"inconclusive: 8.2 µM [activator, partial curve, poor fit]",–
COc1ccc(S(=O)(=O)N2CCOCC2)cc1NC(=O)Cc1ccccc1Cl,inactive,–
OC(COCC(F)(F)C(F)(F)C(F)(F)C(F)F)Cn1c2ccc(Cl)cc2c2cc(Cl)ccc21 (configuration not stated),"inconclusive: 20.6 µM [activator, single point]",–
CC(C)c1c(C(=O)N/N=C/c2ccc(OCc3ccccc3)cc2)nnn1-c1nonc1N,"inconclusive: 20.6 µM [activator, single point]",–
CNC(=O)NC(=O)C(NC1CCCc2ccccc21)c1ccccc1 (configuration not stated),"inconclusive: 29.1 µM [activator, single point]",–
CCNC(=O)C1CC(=O)N(Cc2ccc3c(c2)OCO3)C(=Nc2ccc(F)cc2)S1 (configuration not stated),"inconclusive: 25.9 µM [activator, partial curve, poor fit]",–
CCC1CCCCN1S(=O)(=O)c1ccc(C(=O)N(CCCN(C)C)c2nc3cc4c(cc3s2)OCO4)cc1 (configuration not stated),"inconclusive: 25.9 µM [activator, single point]",–
COC1(OC)C(/C=C/c2ccc(C)cc2)C(C#N)(C#N)C1(OC)OC (configuration not stated),"inconclusive: 16.4 µM [activator, single point]",–
O=C(CSc1ncnc2c1cnn2-c1ccc(F)cc1)NCC1CCCO1 (configuration not stated),"inconclusive: 16.4 µM [activator, single point]",–
Cc1nn(C(C)(C)C)c(OC(=O)c2ccco2)c1Sc1ccccc1,"inconclusive: 32.6 µM [activator, partial curve, poor fit]",–
O=C(N/N=C\c1ccco1)Nc1cccc(Cl)c1,"inconclusive: 11.6 µM [activator, single point]",–
c1nnc(-c2ccc3c(c2)OCO3)o1,–,inconclusive: 22.2% [activator]
Cc1ccc(Cn2ccc(C3CC3)n2)cc1,inactive,–
COc1ccc(-c2ccc3c(c2)C2CC3CCN2CCC#N)cc1 (configuration not stated),"inconclusive: 3.66 µM [activator, single point]",–
COc1ccc(C(C)NC(=O)C2CCCC2)cc1OC (configuration not stated),"inconclusive: 29.1 µM [activator, single point]",–
COc1ccccc1[C@@H]1C(c2ccccc2)=NN(c2ccc(Br)cc2)[C@H]1C(=O)N1CCOC1=O,"inconclusive: 23.1 µM [activator, partial curve, poor fit]",–
Cc1[nH]nc(-c2ccc(OCc3cnn(-c4ccccc4)c3)cc2O)c1Oc1ccc(Cl)cc1,"inconclusive: 20 µM [activator, single point]",–
Cc1cc(NC(=O)CC(C)(C)C)nc2c1c(=O)oc1ccccc12,"inconclusive: 14.6 µM [activator, single point]",–
O=C(N/N=C/C=C\c1ccccc1[N+](=O)[O-])c1ccccn1,"inconclusive: 3.26 µM [activator, full curve, poor fit]",–

# Single records, from the list above.
# CC(C)c1c(C(=O)N/N=C/c2ccc(OCc3ccccc3)cc2)nnn1-c1nonc1N is entered as Potency: inconclusive: 20.6 µM [activator, single point]
# CCC1CCCCN1S(=O)(=O)c1ccc(C(=O)N(CCCN(C)C)c2nc3cc4c(cc3s2)OCO4)cc1 (configuration not stated) is entered as Potency: inconclusive: 25.9 µM [activator, single point]

# The results go on:

SMILES,Potency,re-replication activation
O=C(NNS(=O)(=O)c1ccc(F)cc1)c1ccccc1F,active: 18.4 µM,–
COc1ccc(C(=O)NNC(=S)NC(=O)c2ccc(Cl)cc2)cc1,"inconclusive: 23.1 µM [activator, partial curve, poor fit]",–
COC(=O)c1ccc(/C=N/NC(=O)CC(=O)NC(C)C)cc1,inactive,–
NS(=O)(=O)c1ccc(Nc2c([N+](=O)[O-])cncc2[N+](=O)[O-])cc1,"inconclusive: 25.9 µM [activator, partial curve, poor fit]",–
O=C(O)c1sccc1Oc1ccc(NS(=O)(=O)c2ccccc2)cc1,inactive,–
N#CC1=C(N)Oc2cc(N)ccc2C1c1cccc(F)c1 (configuration not stated),active: 11.6 µM,–
COc1cc(/C=C2\NC(=S)N(C)C2=O)ccc1OCc1ccccc1F,"inconclusive: 0.461 µM [activator, full curve]",–
CCCCCCCN1C(Nc2ccccc2)=NC[C@@H]1CC(C)C,"inconclusive: 23.1 µM [activator, single point]",–
O=C(CN1CCN(Cc2ccccc2)CC1)N/N=C/c1ccc(Br)s1,inactive,–
O=C1N/C(=N\N=C\c2ccc3ncccc3c2)SC1Cc1ccc(SC(F)F)cc1 (configuration not stated),"inconclusive: 18.4 µM [activator, partial curve, poor fit]",–
Cc1ccc(/C=N/N2C(=O)C3C(C2=O)C2C=CC3C23CC3)o1 (configuration not stated),"inconclusive: 18.4 µM [activator, partial curve, poor fit]",–
COc1ccc(S(=O)(=O)N(C)CC(=O)Nc2ccccc2C(F)(F)F)cc1,inactive,–
Cc1[nH][nH]c(=O)c1C(c1c(C)[nH][nH]c1=O)c1cn(Cc2ccc(Cl)c(Cl)c2)c2ccccc12,active: 9.2 µM,–
COCc1cc(C)nc2sc(C(=O)Nc3ccc(OC)cc3)c(N)c12,"inconclusive: 20.6 µM [activator, single point]",–
Cc1ccc(SCC(=O)NNC(=O)c2ccccc2)cc1C,inactive,–
Cc1cccn2c(=O)c3cc(C(=O)NCCC4=CCCCC4)n(C)c3nc12,"inconclusive: 1.3 µM [activator, partial curve, poor fit]",–
CCN(CC)S(=O)(=O)c1cccc(NC(=O)COC(=O)/C=C/c2cccs2)c1,"inconclusive: 29.1 µM [activator, single point]",–
Cn1c(-c2ccco2)nc2cc3ccccc3cc21,"inconclusive: 29.1 µM [activator, partial curve, poor fit]",–
COc1ccc(C2NC(=O)NC3=C2CCc2ccccc23)cc1 (configuration not stated),"inconclusive: 25.9 µM [activator, single point]",–
CCn1c(SCC(=O)N2CCCC2)nc2c(c1=O)SCC2,"inconclusive: 16.4 µM [activator, single point]",–
OC(c1cccc(Cl)c1)c1nccc2ccccc12 (configuration not stated),"inconclusive: 29.1 µM [activator, single point]",–
